# Experimental data: PubChem BioAssay AID1224830 (NIAID, 2016)
# Test: 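Regulators of TLR4 signalling towards TNF-alpha in macrophage-like cells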 (primary screen)
# System: human THP-1 monocytic leukaemia cells, TNF dual-luciferase reporter clone, PMA-differentiated to macrophage-like cells
# Reagent: siRNA pool against human genes, 50 nM
# Time to read-out: LPS for 4 h, given about 3 days after siRNA transfection
# Challenge: bacterial LPS (TLR4 ligand), 10 ng/ml
# Read-out: 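Ratio of firefly to renilla light, scaled to the plate median and expressed as a robust z-score per replicate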
# Scale: TNF reporter robust z-score: higher = stronger TNF reporter response to LPS
# Active means: 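Each well counts as active if its z-score is over 2.8 or under -1.5; controls are left without a call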
# Shown is an unselected part of about 18,000 deposited reagents. Of all reagents, about 2,900 (16%) got an active call. 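Calls are made per well; low scores hint the gene aids the LPS response, high scores that it dampens it.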 A number with no mark means an inactive call. Repeated entries: four replicate wells of each siRNA pool.
gene,TNF reporter robust z-score
PRX,5.44 (active)
PRX,4.43 (active)
PRX,2.28
PRX,-0.87
FAM135B,-1.08
FAM135B,-1.05
FAM135B,-1.06
FAM135B,-0.6
LRRC7,-0.87
LRRC7,-0.6
LRRC7,0.58
LRRC7,-0.29
IRX2,-0.36
IRX2,-0.94
IRX2,-1.27
IRX2,0.41
HTR6,-2.23 (active)
HTR6,-1.74 (active)
HTR6,-1.38
HTR6,-1.45
ZNF431,0.26
ZNF431,0.65
ZNF431,-0.62
ZNF431,0.58
PPP1R9A,0.7
PPP1R9A,-0.07
PPP1R9A,-0.74
PPP1R9A,1.44
DRC4,-0.73
DRC4,-0.39
DRC4,-0.5
DRC4,-1.02
SIGLEC12,1.04
SIGLEC12,0.45
SIGLEC12,0.59
SIGLEC12,-0.52
USP54,-0.6
USP54,-1.39
USP54,-0.36
USP54,-0.41
DRD4,-0.01
DRD4,0.76
DRD4,-0.29
DRD4,1.3
MAN1A2,-0.59
MAN1A2,-0.03
MAN1A2,-0.38
MAN1A2,0.46
CABLES1,-1.27
CABLES1,-1.31
CABLES1,-1.42
CABLES1,-1.67 (active)
ASB1,-0.44
ASB1,-0.86
ASB1,-0.43
ASB1,-1.78 (active)
CENPM,-0.52
CENPM,-1.13
CENPM,-0.36
NCBP3,0.4
NCBP3,0.09
NCBP3,-0.55
NCBP3,0.64
WSCD1,-0.56
WSCD1,-0.41
WSCD1,-0.76
WSCD1,-0.31

Hits (from the list above):
gene,TNF reporter robust z-score
PRX,5.44 (active)
PRX,4.43 (active)
HTR6,-2.23 (active)
HTR6,-1.74 (active)
CABLES1,-1.67 (active)
ASB1,-1.78 (active)

Additional entries:
gene,TNF reporter robust z-score
CUL1,-0.9
CUL1,0.11
CUL1,-0.38
CUL1,-0.08
SLF1,-0.81
SLF1,-1.47
SLF1,-0.5
SLF1,-0.85
ATP5F1E,-0.41
ATP5F1E,-0.94
ATP5F1E,-0.26
ATP5F1E,-0.8
ISLR,0.31
ISLR,1.05
ISLR,1.01
ISLR,0.69
GTF2B,0.67
GTF2B,1.07
GTF2B,0.65
GTF2B,1.25
LSMEM2,-0.17
LSMEM2,-0.76
LSMEM2,-0.05
LSMEM2,0.81
THAP8,1.74
THAP8,3.1 (active)
THAP8,2.21
THAP8,2.29
CYRIB,-0.26
CYRIB,0.06
CYRIB,-0.32
CYRIB,-0.25
TMEM207,2.46
TMEM207,1.62
TMEM207,1.17
TMEM207,-0.1
EID3,-0.25
EID3,0.8
EID3,0.42
EID3,1
CEP55,-0.01
CEP55,1.61
CEP55,1.19
CEP55,2.6
